Paper PMC6629148
Results are given in words; binding and its absence hold for the method and conditions named. In cells and extracts the contact can be indirect. Some entries that bind do so weakly or less than the wild type. Sequences can lack the tags named with a protein.

Protein sequences, listed by entry. Tags and fused reporters are not part of them.
UniProt P28033: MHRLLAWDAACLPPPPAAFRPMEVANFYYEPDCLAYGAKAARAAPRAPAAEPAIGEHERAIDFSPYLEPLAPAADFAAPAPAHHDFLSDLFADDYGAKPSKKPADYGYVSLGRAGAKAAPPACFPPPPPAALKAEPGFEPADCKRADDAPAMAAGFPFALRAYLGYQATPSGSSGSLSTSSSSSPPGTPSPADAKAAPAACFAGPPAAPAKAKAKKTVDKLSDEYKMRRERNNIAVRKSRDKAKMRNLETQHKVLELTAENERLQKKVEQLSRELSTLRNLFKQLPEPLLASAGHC

Assays:
[1] = molecular target: T1, Flag-CEBPδ (CCAAT/enhancer binding protein delta) (UniProt Q00322); assay: co-IP; lysates of 293FT cells transfected with HA-IRX5 and Flag-CEBPβ or Flag-CEBPδ; incubated with Anti-FLAG M2 Affinity Gel at 4°C overnight; washed with lysis buffer; SDS-PAGE and immunoblotting
T1 sequence: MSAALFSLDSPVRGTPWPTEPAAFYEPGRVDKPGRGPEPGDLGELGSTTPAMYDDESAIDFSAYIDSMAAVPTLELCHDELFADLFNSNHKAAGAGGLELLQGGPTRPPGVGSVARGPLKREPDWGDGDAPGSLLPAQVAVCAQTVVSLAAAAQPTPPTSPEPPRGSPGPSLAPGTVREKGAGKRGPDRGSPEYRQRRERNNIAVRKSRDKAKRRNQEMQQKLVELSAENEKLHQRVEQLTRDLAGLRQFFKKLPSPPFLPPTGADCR

[2] = molecular target: Flag-CEBPβ (CCAAT/enhancer binding protein beta) (UniProt P28033); assay: as above

binding [1]: binds
binding [2]: binds
B1: HA-IRX5 (iroquois homeobox 5) (protein, UniProt Q9JKQ4 1-484)
chain: MSYPQGYLYQPSASLALYSCPAYSTSVISGPRTDELGRSSSGSAFSPYAGSTAFTAPSPGYNSHLQYGADPAAAAAAAFSYVGSPYDHTPGMAGSLGYHPYAAPLGSYPYGDPAYRKNATRDATATLKAWLNEHRKNPYPTKGEKIMLAIITKMTLTQVSTWFANARRRLKKENKMTWTPRNRSEDEEEEENIDLEKNDEDEPQKPEDKGDLEGPESGGAEQKATAGCERLQGPLSPAGKETEGSLSDSDFKESSSEGRHDELPRPPRAGESSPAGPATARLAEDAGPHYPASVPAPGPHPSAGELPPGSGGSSVIHSPPPPPPPPPAVLAKPKLWSLAEIATSSDKVKDGGGGSEGSPCPPCPGPMGGQTLGGSRASPAPAPARSPSAQCPFPGGTVLSRPLYYTAPFYPGYTNYGSFGHLHGHPGPGPSPTAGPGSHFNGLNQTVLNRADVLAKDPKMLRSQSQLDLCKDSPYELKKGMSDI
